The results in this text go back to PMC3457981, “The Role, Interaction and Regulation of the Velvet Regulator VelB in Aspergillus nidulans”.

Data set [1] concerns the target T1, GST-AbaA (Aspergillus nidulans) (UniProt P20945).
T1 sequence (looked up): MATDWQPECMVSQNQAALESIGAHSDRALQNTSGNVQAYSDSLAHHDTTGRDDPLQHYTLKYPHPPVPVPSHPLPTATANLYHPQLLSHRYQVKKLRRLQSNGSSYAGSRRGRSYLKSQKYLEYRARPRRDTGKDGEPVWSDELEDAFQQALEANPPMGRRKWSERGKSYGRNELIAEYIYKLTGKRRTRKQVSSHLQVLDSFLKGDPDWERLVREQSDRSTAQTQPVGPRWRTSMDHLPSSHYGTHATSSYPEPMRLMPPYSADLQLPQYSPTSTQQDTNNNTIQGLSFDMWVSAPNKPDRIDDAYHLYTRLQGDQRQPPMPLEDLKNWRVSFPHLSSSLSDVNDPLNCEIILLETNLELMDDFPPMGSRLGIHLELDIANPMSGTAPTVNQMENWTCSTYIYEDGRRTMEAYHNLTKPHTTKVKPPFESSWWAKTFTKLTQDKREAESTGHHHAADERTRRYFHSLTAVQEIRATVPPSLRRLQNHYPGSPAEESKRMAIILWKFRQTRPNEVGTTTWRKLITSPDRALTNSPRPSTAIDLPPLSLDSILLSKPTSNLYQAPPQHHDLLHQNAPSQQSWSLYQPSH
Kind of data set: EMSA. Conditions: direct probe; 6% glycerol, 12 mM HEPES-KOH pH 7.6, 4 mM Tris-HCl pH 8.0, 1 mM EDTA, 0.5 mM DTT, 0-12 ug poly(dI-dC), ~10 ng probe in 24 ul; RT, 20 min; 6% PAGE, TBE; recombinant protein; residues 1-588; protein details: N-terminal GST (pGEX-5X-1); label: 32P as probe, unlabeled as competitor. A general note: Mobility shift assays separate free from complexed probe on a gel.

Data set [2] has as its target T1, GST-AbaA (Aspergillus nidulans). Kind of data set: competition with a labelled probe. The following applies: unlabeled, 5-25 fold excess vs labeled WT probe, 6% glycerol, 12 mM HEPES-KOH pH 7.6, 4 mM Tris-HCl pH 8.0, 1 mM EDTA, 0.5 mM DTT, 0-12 ug poly(dI-dC), ~10 ng probe in 24 ul, RT, 20 min, 6% PAGE, TBE, recombinant protein, residues 1-588, protein details: N-terminal GST (pGEX-5X-1).

Data set [3] has as its system GST. The data set can be described thus: EMSA. The following applies: tag-only control; 6% glycerol, 12 mM HEPES-KOH pH 7.6, 4 mM Tris-HCl pH 8.0, 1 mM EDTA, 0.5 mM DTT, 0-12 ug poly(dI-dC), ~10 ng probe in 24 ul; RT, 20 min; 6% PAGE, TBE; recombinant protein; protein details: GST only; label: 32P (5' end, T4 PNK).
The mark [4] stands for this setting: label: 32P as probe, unlabeled as competitor.

Negatives hold for the conditions tested. For some of these results: At least one verdict was read from the data and is not stated in words by the source. For some of these results: Tags and fusion partners may be left off the protein sequences shown. For some of these results: Construct, isoform or probe ends are uncertain for at least one entry.

On to “AGCTCCAGCTCCAAACCGCACGGTCAAACCGTTCTCGGCG (double strand) [velB EMSA probe M2]”, for which the binding result in data set [1] and in data set [2] (setting [4]) was “no binding” in each case.

For the sequence “AGCTCCAGCTCCATTCCGCACGGTCATTCCGTTCTCGGCG (double strand) [velB EMSA probe 2]”, the binding result in data set [2] (label: 32P (5' end, T4 PNK)) is “binds”.

In the case of “CAGCTCCAAACCGCACGGTCATTCC (double strand) [velB EMSA probe M1]”, the binding result in data set [1] and in data set [2] (setting [4]) was “no binding” throughout.

On to “CAGCTCCATTCCGCACGGTCATTCC (double strand) [velB EMSA probe 1]”, for which the binding result in data set [3] was “no binding”; in data set [2] (label: 32P (5' end, T4 PNK)), “binds”.

On to “GTGGTTCCTTACCTCAAACCCGACCTTTTTTGCC (double strand) [vosA EMSA probe M3]”, for which the binding result in data set [1] and in data set [2] (setting [4]) was “no binding” in each case.

In the case of “GTGGTTCCTTACCTCATTCCCGACCTTTTTTGCC (double strand) [vosA EMSA probe 3]”, the binding result in data set [2] (label: 32P (5' end, T4 PNK)) is given as “binds”.
